The test system of the assay is Staphylococcus epidermidis ATCC 12228. Briefly: MIC broth microdilution, method 1. The assay is classed as cell-based. To be noted: ATCC12228, reference compound, read-out: MIC (Concurrent).

Molecules are shown by their SMILES. In brackets after ≈: the same amount, converted by molar mass.

For the molecule `CN[C@H](CC(C)C)C(=O)N[C@H]1C(=O)N[C@@H](CC(N)=O)C(=O)N[C@H]2C(=O)N[C@H]3C(=O)N[C@H](C(=O)N[C@H](C(=O)O)c4cc(O)cc(O)c4-c4cc3ccc4O)[C@H](O)c3ccc(c(Cl)c3)Oc3cc2cc(c3O[C@@H]2O[C@H](CO)[C@@H](O)[C@H](O)[C@H]2O[C@H]2C[C@](C)(N)[C@H](O)[C@H](C)O2)Oc2ccc(cc2Cl)[C@H]1O` [Vancomycin, reference compound], the MIC (in general, the lowest concentration found to suppress growth) was found to be 1 µg/mL (≈ 0.69 µM).

(Values after US20240174714A1, “TREATMENT OF SKIN DISORDERS” (priority 2021, published 2024).)
